This is an account of results in PMC6197854.

Protein sequences, listed by entry. Tags and fused reporters are not part of them. Residues count along the entry.
UniProt Q05909, residues 20-733: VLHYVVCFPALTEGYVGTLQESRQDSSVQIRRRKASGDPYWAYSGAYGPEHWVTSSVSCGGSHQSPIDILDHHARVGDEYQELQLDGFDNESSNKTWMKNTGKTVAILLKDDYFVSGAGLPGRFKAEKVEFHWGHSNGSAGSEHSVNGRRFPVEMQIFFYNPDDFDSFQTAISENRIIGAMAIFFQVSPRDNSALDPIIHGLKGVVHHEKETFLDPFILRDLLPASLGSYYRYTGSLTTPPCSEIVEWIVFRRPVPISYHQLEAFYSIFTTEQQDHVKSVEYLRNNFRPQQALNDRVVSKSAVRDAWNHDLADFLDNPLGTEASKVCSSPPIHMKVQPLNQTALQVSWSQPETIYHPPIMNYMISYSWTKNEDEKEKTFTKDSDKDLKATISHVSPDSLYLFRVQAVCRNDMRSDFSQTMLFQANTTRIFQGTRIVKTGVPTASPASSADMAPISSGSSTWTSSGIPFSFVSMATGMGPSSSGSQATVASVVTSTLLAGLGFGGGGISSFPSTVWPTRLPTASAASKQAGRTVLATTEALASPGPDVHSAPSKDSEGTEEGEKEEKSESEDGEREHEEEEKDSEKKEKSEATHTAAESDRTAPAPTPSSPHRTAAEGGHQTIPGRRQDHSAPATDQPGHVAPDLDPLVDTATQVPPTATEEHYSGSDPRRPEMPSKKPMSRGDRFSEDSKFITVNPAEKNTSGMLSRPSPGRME
UniProt P12023, residues 18-701: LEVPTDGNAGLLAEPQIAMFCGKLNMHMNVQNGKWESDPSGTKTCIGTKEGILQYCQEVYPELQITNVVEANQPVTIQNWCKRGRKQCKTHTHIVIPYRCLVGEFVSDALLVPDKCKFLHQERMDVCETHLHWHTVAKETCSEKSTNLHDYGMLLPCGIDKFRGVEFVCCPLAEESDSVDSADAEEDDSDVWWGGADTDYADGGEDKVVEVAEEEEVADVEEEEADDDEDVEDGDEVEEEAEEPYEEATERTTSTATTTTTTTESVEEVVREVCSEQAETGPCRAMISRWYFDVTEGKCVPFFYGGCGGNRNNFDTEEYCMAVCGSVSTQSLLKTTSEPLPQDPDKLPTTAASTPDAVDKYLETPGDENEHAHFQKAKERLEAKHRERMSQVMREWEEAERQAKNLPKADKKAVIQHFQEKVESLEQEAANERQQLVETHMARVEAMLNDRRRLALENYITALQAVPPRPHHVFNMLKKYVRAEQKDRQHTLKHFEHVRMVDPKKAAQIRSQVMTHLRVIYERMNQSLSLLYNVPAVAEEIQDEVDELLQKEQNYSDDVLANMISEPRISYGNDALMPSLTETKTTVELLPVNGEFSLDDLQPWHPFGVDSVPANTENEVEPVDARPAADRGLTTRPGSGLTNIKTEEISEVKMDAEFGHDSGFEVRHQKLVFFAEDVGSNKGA

These are yes or no findings as the source states them, for the method shown. For some assays here: Binding seen in cells or lysates may run through a third protein. Some results given as binding are weak or reduced against the parent protein; the word gives no strength. For some assays here: Tags and fused reporters may be left off the sequences shown.

One test concerns the target PTPRG-Fc (mouse) (UniProt Q05909). Nature of the test: ACAPseq (affinity capture of polyribosomes followed by RNAseq); bait-Fc (~10 ug) on Protein-G magnetic beads; 40 ug neonatal mouse brain polyribosomes in 600 ul binding buffer (25 mM Tris pH 7.5, 150 mM KCl, 15 mM MgCl2, 1 mM CaCl2, 250 mM sucrose, 0.5% Igepal-630, 0.5% sodium deoxycholate, cyclohexamide, heparin), overnight at 4°C; captured mRNA sequenced; only the target purified.

The target of a further test is APP-Fc (mouse) (UniProt P12023). The description is as above.
Test [1] has as its target T1, LRTM2-Fc (mouse) (UniProt Q8BGX3).
T1 sequence: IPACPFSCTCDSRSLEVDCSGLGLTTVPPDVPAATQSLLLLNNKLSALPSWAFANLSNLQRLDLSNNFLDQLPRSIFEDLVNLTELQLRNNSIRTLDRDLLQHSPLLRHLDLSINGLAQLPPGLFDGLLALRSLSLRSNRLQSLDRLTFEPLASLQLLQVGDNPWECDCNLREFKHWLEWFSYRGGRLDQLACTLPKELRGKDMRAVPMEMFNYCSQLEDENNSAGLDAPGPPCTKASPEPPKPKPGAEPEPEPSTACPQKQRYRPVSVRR
The description is as above.

Test [2] has as its target T1, LRTM2-Fc (mouse). Kind of test: pull-down; LRTM2-Fc on protein-A sepharose beads; clarified lysate of transfected HEK293T cells in RIPA buffer with 0.1% BSA, 1 mM CaCl2, 1 mM MgCl2, overnight at 4°C; immunoblot for the OLLAS epitope; only the target purified. For orientation: Immunoblotting shows a protein as a band on a membrane.

B1: CNTN4 short isoform (nascent polypeptide on polyribosomes) (protein, UniProt Q69Z26-2 19-705)
chain: DDYTLHGPVFVQEPSHVMFPLDSEEKKVKLSCEVKGNPKPHIRWKINGTDVDIGMDFRYSVVDGSLLINNPNKTQDAGTYQCIATNSFGTIVSREAKLQFAYLENFKTRTRSTVSVRRGQGMVLLCGPPPHSGELSYAWIFNEYPSYQDNRRFVSQETGNLYIAKVEKSDVGNYTCVVTNTVTNHKVLGPPTPLILRNDGVMGEYEPKIEVQFPETVPAEKGTTVKLECFALGNPVPTILWRRADGKPIARKARRHKSNGILEIPNFQQEDAGSYECVAENSRGKNVAKGQLTFYAQPNWVQIINDIHVAMEESVFWECKANGRPKPTYRWLKNGDPLLTRDRIQIEQGTLNITIVNLSDAGMYQCVAENKHGVIFSSAELSVIAESPDFSRTLLKRVTLVKVGGEVVIECKPKASPRPVYTWRKGREILRENERITISEDGNLRIINVTKSDAGSYTCIATNHFGTASSTGNVIVKDPTKVMVPPSSMDVTVGESIVLPCQVTHDHSLDIVFTWTFNGHLIDFDKDGDHFERVGGQDSAGDLMIRNIQLKHAGKYVCMVQTSVDKLSVAADLIVRGPPGPPEAVTIDEITDTTAQLSWRPGPDNHSPITMYVIQARTPFSVGWQAVNTVPDLVDGKTFTATVVGLNPWVEYEFRTVAANVIGIGEPSRPSEKRRTEEAQNTGDQRG
As to B1, the binding result in the test with PTPRG-Fc (mouse) is given as “binds”.

B2: CNTN4 long isoform (nascent polypeptide on polyribosomes) (protein, UniProt Q69Z26-1 19-1000)
chain: DDYTLHGPVFVQEPSHVMFPLDSEEKKVKLSCEVKGNPKPHIRWKINGTDVDIGMDFRYSVVDGSLLINNPNKTQDAGTYQCIATNSFGTIVSREAKLQFAYLENFKTRTRSTVSVRRGQGMVLLCGPPPHSGELSYAWIFNEYPSYQDNRRFVSQETGNLYIAKVEKSDVGNYTCVVTNTVTNHKVLGPPTPLILRNDGVMGEYEPKIEVQFPETVPAEKGTTVKLECFALGNPVPTILWRRADGKPIARKARRHKSNGILEIPNFQQEDAGSYECVAENSRGKNVAKGQLTFYAQPNWVQIINDIHVAMEESVFWECKANGRPKPTYRWLKNGDPLLTRDRIQIEQGTLNITIVNLSDAGMYQCVAENKHGVIFSSAELSVIAESPDFSRTLLKRVTLVKVGGEVVIECKPKASPRPVYTWRKGREILRENERITISEDGNLRIINVTKSDAGSYTCIATNHFGTASSTGNVIVKDPTKVMVPPSSMDVTVGESIVLPCQVTHDHSLDIVFTWTFNGHLIDFDKDGDHFERVGGQDSAGDLMIRNIQLKHAGKYVCMVQTSVDKLSVAADLIVRGPPGPPEAVTIDEITDTTAQLSWRPGPDNHSPITMYVIQARTPFSVGWQAVNTVPDLVDGKTFTATVVGLNPWVEYEFRTVAANVIGIGEPSRPSEKRRTEEALPEVTPANVSGGGGSKSELVITWETVPEELQNGRGFGYVVAFRPHGKMIWMLTVLASADASRYVFRNESVRPFSPFEVKVGVFNNKGEGPFSPTTLVYSAEEEPTKPPASIFARSLSATDIEVFWASPIGKNRGRIQGYEVKYWRHDDKEENAKKIRTVGNQTSTKITNLKGSALYHLSVKAYNSAGTGPSSATVNVTTRKPPPSQPPGNIIWNSSDSKIILNWDQVKALDNESEVKGYKVLYRWNRQSSTSVIETNKTSVELSLPFDEDYIIEIKPFSDGGDGSSSEQIRIPKISNSYARGS
For B2, in the test with PTPRG-Fc (mouse), the binding result is recorded as “binds”.

B3: Cyclin-dependent kinase 11b (nascent polypeptide on polyribosomes) (protein, UniProt P24788 1-784)
chain: MGDEKDSWKVKTLDEILQEKKRRKEQEEKAEIKRLKNSDDRDSKRDSLEEGELRDHRMEITIRNSPYRREDSMEDRGEEDDSLAIKPPQQMSRKEKAHHRKDEKRKEKRRHRSHSAEGGKHARVKEKEREHERRKRHREEQDKARREWERQKRREMAREHSRRERDRLEQLERKRERERKLREQQKEQREQKERERRAEERRKEREARREVSAHHRTMREEYSDKGKVGHWSRSPLRPPRERFEMGDNRKPVKEEKVEERDLLSDLQDISDSERKTSSAESSSAESGSGSEEEEEEEEEEEEEEGSTSEESEEEEEEEEEEEEEETGSNSEEASEQSAEEVSDEEMSEDEDRENENHILVVPESRFDRDSGDSEEGEEEVGEGTPQSSAPTEGDYVPDSPALSPIELKQELPKYLPALQGCRSVEEFQCLNRIEEGTYGVVYRAKDKKTDEIVALKRLKMEKEKEGFPITSLREINTILKAQHPNIVTVREIVVGSNMDKIYIVMNYVEHDLKSLMETMKQPFLPGEVKTLMIQLLSGVKHLHDNWILHRDLKTSNLLLSHAGILKVGDFGLAREYGSPLKAYTPVVVTLWYRAPELLLGAKEYSTAVDMWSVGCIFGELLTQKPLFPGKSDIDQINKIFKDLGTPSEKIWPGYNDLPAVKKMTFSEYPYNNLRKRFGALLSDQGFDLMNKFLTYYPGRRINAEDGLKHEYFRETPLPIDPSMFPTWPAKSEQQRVKRGTSPRPPEGGLGYSQLGDDDLKETGFHLTTTNQGASAAGPGFSLKF
Consider B3, for which the binding entry with APP-Fc (mouse) was “binds”.

B4: TNR (nascent polypeptide on polyribosomes) (protein, UniProt Q8BYI9 32-1358)
chain: RLEVTTERAQRQTVEEEGGASSYNTSSKEQPMVFNHVYNINVPLESLCSSGLEASAEQDMSAEDDTLAEYIGQTSDHESQVTFTHKINLPKKACPCASSSQVLQELLSRIEMLEREVSLLRDQCNTNCCQESAATGQLDYVPHCSGHGNFSFESCGCICNEGWFGKNCSEPYCPLGCSSRGVCVDGQCICDSEYSGDDCSELRCPTDCSSRGLCVDGECVCEEPYTGEDCRELRCPGDCSGKGQCANGTCLCQEGYAGEDCSQRRCLNACSGRGHCQEGLCICEEGYQGPDCSAVAPPEDLRVAGISDRSIELEWDGPMAVTEYVISYQPTALGGLQLQQRVPGDWSGVTIMELEPGLTYNISVYAVISNILSLPITAKVATHLSTPQGLQFKTITETTVEVQWEPFSFSFDGWEISFIPKNNEGGVIAQLPSDVTSFNQTGLKPGEEYIVNVVALKEQARSPPTSASVSTVIDGPTQILVRDVSDTVAFVEWTPPRAKVDFILLKYGLVGGEGGKTTFRLQPPLSQYSVQALRPGSRYEVSISAVRGTNESEASSTQFTTEIDAPKNLRVGSRTATSLDLEWDNSEAEAQEYKVVYSTLAGEQYHEVLVPKGIGPTTKTTLTDLVPGTEYGVGISAVMNSKQSIPATMNARTELDSPRDLMVTASSETSISLIWTKASGPIDHYRITFTPSSGISSEVTVPRDRTSYTLTDLEPGAEYIISITAERGRQQSLESTVDAFTGFRPISHLHFSHVTSSSVNITWSDPSPPADRLILNYSPRDKEEDMLEVLLDATKRHAVLMGLQPATEYIVNLVAVHGTVTSEPIVGSITTGIDPPKNITISNVTKDSLTVSWSSPVAPFDYYRVSYRPTQVGRLDSSVVPNTVTEFAITRLYPATEYEISLNSVRGREESERICTLVHTAMDSPMDLIATNITPTEALLQWKAPMGEVENYVIVLTHFAIAGETILVDGVSEEFQLVDLLPSTHYTVTMYATSGPLMSGTIATNFSTLLDPPDNLTASEVTRQSALISWQPPRAAIENYVLTYKSTDGSRKELIVDAEDTWIRLEGLSENTDYTVLLQAAQEATRSSLTSTVFTTGGRVFSHPQDCAQHLMNGDTLSGVYTIFLNGELSHKLQVYCDMTTDGGGWIVFQRRQNGQTDFFRKWADYRVGFGNLEDEFWLGLDNIHRITAQGRYELRVDMRDGQEAVFAYYDKFAVEDSRSLYKIRIGSYNGTAGDSLSYHQGRPFSTEDRDNDVAVTNCAMSYKGAWWYKNCHRTNLNGKYGESRHSQGINWYHWKGHEFSIPFVEMKMRPYIHRLTAGRKRRALKF
In the case of B4, the binding entry with LRTM2-Fc (mouse) [1] was “binds”.

B5: TNR-OLLAS (protein, UniProt Q8BYI9 32-1358)
chain: B4 chain
Consider B5, for which the binding entry with LRTM2-Fc (mouse) [2] is “binds”.
